Measurements taken from US20200384080A1 (published 2020).
Results are given in words; binding and its absence hold for the method and conditions named. Some entries that bind do so weakly or less than the wild type. For some of these results: Where a sequence is shown, tags or fusion partners need not be part of it.

By UniProt entry, the sequences of proteins in these tests, tags left out. Where a name states a change or a piece, a line headed by the entry shows the natural chain unless it says otherwise. Residues count along the entry.
UniProt P22004, residues 375-513: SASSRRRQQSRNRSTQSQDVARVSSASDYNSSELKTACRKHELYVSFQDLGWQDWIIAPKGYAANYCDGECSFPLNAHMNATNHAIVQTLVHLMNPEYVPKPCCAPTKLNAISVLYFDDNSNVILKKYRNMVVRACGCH
UniProt P27037: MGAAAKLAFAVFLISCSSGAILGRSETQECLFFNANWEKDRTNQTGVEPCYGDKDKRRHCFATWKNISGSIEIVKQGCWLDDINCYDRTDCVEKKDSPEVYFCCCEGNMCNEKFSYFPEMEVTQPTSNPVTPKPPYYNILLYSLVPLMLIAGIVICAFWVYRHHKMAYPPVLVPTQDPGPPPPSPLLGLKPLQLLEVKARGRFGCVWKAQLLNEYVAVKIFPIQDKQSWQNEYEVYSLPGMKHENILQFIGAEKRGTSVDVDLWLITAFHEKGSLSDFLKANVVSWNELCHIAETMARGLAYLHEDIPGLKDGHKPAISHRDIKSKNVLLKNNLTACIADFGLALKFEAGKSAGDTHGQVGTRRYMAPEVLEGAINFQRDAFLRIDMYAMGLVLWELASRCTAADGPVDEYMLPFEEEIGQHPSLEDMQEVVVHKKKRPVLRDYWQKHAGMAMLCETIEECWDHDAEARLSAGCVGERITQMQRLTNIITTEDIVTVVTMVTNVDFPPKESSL
UniProt P36896: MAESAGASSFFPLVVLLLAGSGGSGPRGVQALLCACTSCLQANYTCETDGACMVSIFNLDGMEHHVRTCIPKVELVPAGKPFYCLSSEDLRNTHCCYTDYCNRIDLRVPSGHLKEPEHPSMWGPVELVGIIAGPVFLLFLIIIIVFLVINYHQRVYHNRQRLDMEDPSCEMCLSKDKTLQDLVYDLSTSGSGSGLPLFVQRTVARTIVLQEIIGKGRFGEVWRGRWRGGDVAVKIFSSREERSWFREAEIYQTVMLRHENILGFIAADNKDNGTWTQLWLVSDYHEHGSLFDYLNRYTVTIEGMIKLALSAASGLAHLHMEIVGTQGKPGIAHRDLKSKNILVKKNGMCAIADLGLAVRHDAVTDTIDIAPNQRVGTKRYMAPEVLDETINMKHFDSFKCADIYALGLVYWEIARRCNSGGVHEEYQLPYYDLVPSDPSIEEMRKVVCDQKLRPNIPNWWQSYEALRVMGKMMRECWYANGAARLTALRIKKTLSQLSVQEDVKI

Experiments:
activin B [1] = target: T1, activin B (UniProt P09529); assay: similar Biacore binding assay
T1 sequence (looked up): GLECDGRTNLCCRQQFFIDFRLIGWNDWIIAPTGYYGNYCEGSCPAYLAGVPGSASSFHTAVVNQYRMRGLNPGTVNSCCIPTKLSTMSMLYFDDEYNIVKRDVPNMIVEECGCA

BMP6 [2] = target: BMP6 (UniProt P22004); assay: Biacore, legend of FIG. 19
BMP9 [3] = target: T2, BMP9 (UniProt Q9UK05); assay: Biacore, legend of FIG. 19
T2 sequence (looked up): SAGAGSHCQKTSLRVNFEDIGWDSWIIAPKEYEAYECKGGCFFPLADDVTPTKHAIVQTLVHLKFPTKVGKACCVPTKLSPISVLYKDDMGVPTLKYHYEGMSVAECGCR

GDF3 [4] = target: T3, GDF3 (UniProt Q9NR23); assay: Biacore, legend of FIG. 19
T3 sequence (looked up): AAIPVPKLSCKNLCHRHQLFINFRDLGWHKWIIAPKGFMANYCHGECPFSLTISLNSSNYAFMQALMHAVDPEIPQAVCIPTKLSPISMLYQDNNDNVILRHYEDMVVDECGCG

activin B [5] = target: T1, activin B; assay: Biacore, legend of FIG. 19
BMP6 [6] = target: BMP6 (UniProt P22004); assay: Biacore, receptor captured by anti-Fc
BMP9 [7] = target: T2, BMP9; assay: Biacore, receptor captured by anti-Fc
GDF3 [8] = target: T3, GDF3; assay: Biacore, receptor captured by anti-Fc
activin B [9] = target: T1, activin B; assay: Biacore, receptor captured by anti-Fc
BMP9 [10] = target: T2, BMP9; assay: Biacore, as recalled in the reporter assay paragraph
activin B [11] = target: T1, activin B; assay: as above
BMP9 [12] = target: T2, BMP9; assay: Biacore, receptor captured by anti-Fc; footnote: indeterminate due to transient nature of interaction
GDF8 [13] = target: T4, GDF8 (UniProt O14793); assay: Biacore, legend of FIG. 19
T4 sequence (looked up): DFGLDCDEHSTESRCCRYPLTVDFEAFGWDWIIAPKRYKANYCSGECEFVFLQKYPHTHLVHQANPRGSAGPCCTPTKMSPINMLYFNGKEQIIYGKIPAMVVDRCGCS

GDF11 [14] = target: T5, GDF11 (UniProt O95390 299-407); assay: Biacore, legend of FIG. 19
T5 sequence (looked up): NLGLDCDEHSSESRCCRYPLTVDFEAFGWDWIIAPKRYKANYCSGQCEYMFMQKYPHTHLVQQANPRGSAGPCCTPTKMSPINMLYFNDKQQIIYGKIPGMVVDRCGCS

GDF8 [15] = target: T4, GDF8; assay: Biacore, receptor captured by anti-Fc
GDF11 [16] = target: T5, GDF11; assay: Biacore, receptor captured by anti-Fc
Method: A Biacore™-based binding assay was used to compare ligand binding selectivity of the ALK4-Fc:ActRIIB-Fc heterodimeric complex described above with that of ActRIIB-Fc and ALK4-Fc homodimer complexes. The ALK4-Fc:ActRIIB-Fc heterodimer, ActRIIB-Fc homodimer, and ALK4-Fc homodimer were independently captured onto the system using an anti-Fc antibody. Ligands were injected and allowed to flow over the captured receptor protein. Results are summarized in the table below, in which ligand off-rates (kd) most indicative of effective ligand traps are denoted in bold font.

GDF8 [17] = target: T4, GDF8; assay: Biacore, as recalled in the reporter assay paragraph
GDF11 [18] = target: T5, GDF11; assay: as above

Measured: binding

ActRIIA-mFc (from UniProt P27037 21-135) (Fc fusion)
binds: activin B [1]

ALK4-Fc:ActRIIB-Fc heterodimer (from UniProt P36896 24-126; Q13705 20-134) (Fc fusion)
not listed: activin B [1] | GDF8 [13] | GDF11 [14] | GDF8 [15] | GDF11 [16] | GDF8 [17] | GDF11 [18]
binds: all other assays above

B1: ActRIIB-Fc homodimer (Fc fusion, not shown: a dimerising Fc or GST)
chain: GRGEAETRECIYYNANWELERTNQSGLERCEGEQDKRLHCYASWRNSSGTIELVKKGCWLDDFNCYDRQECVATEENPQVYFCCCEGNFCNERFTHLPEAGGPEVTYEPPPTAPT
binds: BMP6 [2] | GDF8 [13] | GDF11 [14] | BMP6 [6] | BMP9 [7] | GDF8 [15] | GDF11 [16] | GDF8 [17] | GDF11 [18] | activin B [11]
